At least one structure is not confirmed: it was looked up by name or label, or the drawing left a doubt.
Assays:
[1] = system: soybeans (Glycine max) Adelphia variety; assay: Increasing axillary branching and improving the canopy of broad leaf plants (soybeans); format: in vivo, soybean (Glycine max); conditions: three weeks after treatment
Source text: In these tests seedling soybean plants approximately three weeks old, and grown in plastic pots to the 2nd to 3rd trifoliate stage, are sprayed with solutions or dispersions of test compound prepared as described in Example 7 above. The same spraying apparatus, described in Example 7 above, is used and after spraying the plants are placed on greenhouse benches and watered and fertilized. Three weeks after treatment the plants are examined to determine what effect the application of test compound has had on the axillary branching and canopy development of the treated plants.
Increased axillary branching and improved canopy are biological responses which are highly advantageous in the growing of ornamental plants. These responses also have advantage in many crops since increased branching may result in the greater production of fruit, while improved canopy tends to shade and suppress the growth of undesirable weeds that compete with the crops for sunlight, water and plant nutrients. Data obtained are reported in table VII below where axillary branching and canopy are reported as percent increase over untreated controls.

[2] = system: soybeans (Glycine max) var. Adelphia; assay: Increasing flowering of plants (soybeans); format: in vivo, soybean (Glycine max); conditions: three weeks after spraying
Experimental: In the following tests seedling soybean plants growing in plastic cups are sprayed with aqueous-acetone solutions or dispersions of test compounds when they have reached the 2nd to 3rd trifoliate stage. Test solutions or dispersions are prepared with 0.25 v/v Colloidal BIOFILM® surfactant and sufficient test compound to provide the plants with 0.5, 0.25, 0.125 or 0.06 kg/ha of said compound when the test solutions are sprayed on said plants from an overhead sprayer delivering 747 l/ha of solution.
After spraying the plants are placed on greenhouse benches and watered and fertilized. Three weeks after spraying the plants are examined and the amount of flowering determined for all plants. Data obtained are reported in the table below as percent increase in flowering over untreated controls.
From the data reported in Table VIII below it can be seen that the compounds of the present invention applied at rates of from 0.06 to 0.25 kg/ha enhance flowering of treated plant more than 10% over untreated controls. This response is particularly desirable for treatment of flowering varieties of ornamental plants as well as agronomic crops.

Cc1cc(C)c([N-][N+](=O)[O-])c(C)c1.Cn1c(-c2ccccc2)cc(-c2ccccc2)[n+]1C [1,2-Dimethyl-3,5-diphenylpyrazolium salt with 2,4,6-Trimethyl-N--aci-nitroaniline]
% Increase in Plant Canopy over untreated controls ([1]; rate 0.25 kg/ha): >10 <15
% Increase in axillary branching over untreated controls ([1]; rate 0.25 kg/ha): >10 <15
% Increase in Plant Canopy over untreated controls ([1]; rate 0.5 kg/ha): >10 <15
% Increase in axillary branching over untreated controls ([1]; rate 0.5 kg/ha): >10 <15

Cn1c(-c2ccccc2)cc(-c2ccccc2)[n+]1C.O=[N+]([O-])[N-]c1c(Br)cc(Br)cc1I [1,2-Dimethyl-3,5-diphenylpyrazolium salt with 2,4-dibromo-6-iodo-N--aci-nitroaniline]
% Increase in Plant Canopy over untreated controls ([1]; rate 0.125 kg/ha): >10 <15
% Increase in axillary branching over untreated controls ([1]; rate 0.125 kg/ha): >10 <15
% Increase in Plant Canopy over untreated controls ([1]; rate 0.25 kg/ha): >20 <35
% Increase in axillary branching over untreated controls ([1]; rate 0.25 kg/ha): >20 <35
% Increase in Plant Canopy over untreated controls ([1]; rate 0.5 kg/ha): >20 <35
% Increase in axillary branching over untreated controls ([1]; rate 0.5 kg/ha): >20 <35
% Increase in Flowering over untreated controls ([2]; rate 0.125 kg/ha): >10 <15
% Increase in Flowering over untreated controls ([2]; rate 0.25 kg/ha): >10 <15

Cn1c(-c2ccccc2)cc(-c2ccccc2)[n+]1C.O=[N+]([O-])[N-]c1c(Br)cc(Cl)cc1Br [1,2-Dimethyl-3,5-diphenylpyrazolium salt with 2,6-dibromo-4-chloro-N--aci-nitroaniline]
% Increase in axillary branching over untreated controls ([1]; rate 0.125 kg/ha): >10 <15
% Increase in Plant Canopy over untreated controls ([1]; rate 0.25 kg/ha): >10 <15
% Increase in axillary branching over untreated controls ([1]; rate 0.25 kg/ha): >10 <15
% Increase in Plant Canopy over untreated controls ([1]; rate 0.5 kg/ha): >10 <15
% Increase in axillary branching over untreated controls ([1]; rate 0.5 kg/ha): >10 <15

Cn1c(-c2ccccc2)cc(-c2ccccc2)[n+]1C.O=[N+]([O-])[N-]c1c(Br)cc(Br)cc1C(F)(F)F [1,2-Dimethyl-3,5-diphenylpyrazolium salt with 4,6-dibromo-α,α,α-trifluoro-N--aci-o-toluidine]
% Increase in Plant Canopy over untreated controls ([1]; rate 0.125 kg/ha): >20 <35
% Increase in axillary branching over untreated controls ([1]; rate 0.125 kg/ha): >10 <15
% Increase in Plant Canopy over untreated controls ([1]; rate 0.25 kg/ha): >10 <15
% Increase in axillary branching over untreated controls ([1]; rate 0.25 kg/ha): >10 <15
% Increase in Plant Canopy over untreated controls ([1]; rate 0.5 kg/ha): >10 <15
% Increase in axillary branching over untreated controls ([1]; rate 0.5 kg/ha): >10 <15

CC1CCCN(c2cc(-c3ccccc3)n(C)[n+]2C)C1.O=[N+]([O-])[N-]c1c(Br)cc(Br)cc1Br (stereo not drawn) [1,2-Dimethyl-3-(3-methylpiperidino)-5-phenyl salt with 2,4,6-tribromo-N--aci-nitroaniline]
% Increase in Flowering over untreated controls ([2]; rate 0.125 kg/ha): >10 <15
% Increase in Flowering over untreated controls ([2]; rate 0.25 kg/ha): >10 <15

Cn1c(-c2ccccc2)cc(C2CCCCC2)[n+]1C.O=[N+]([O-])[N-]c1c(Br)cc(Br)cc1Br [3-Cyclohexyl-1,2-dimethyl-5-phenylpyrazolium salt with 2,4,6-tribromo-N--aci-nitroaniline]
% Increase in Plant Canopy over untreated controls ([1]; rate 0.125 kg/ha): >10 <15
% Increase in axillary branching over untreated controls ([1]; rate 0.125 kg/ha): >10 <15
% Increase in Plant Canopy over untreated controls ([1]; rate 0.25 kg/ha): >10 <15
% Increase in axillary branching over untreated controls ([1]; rate 0.25 kg/ha): >10 <15
% Increase in axillary branching over untreated controls ([1]; rate 0.5 kg/ha): >10 <15

CCCC[P+](CCCC)(CCCC)Cc1ccc(Cl)cc1Cl.O=[N+]([O-])[N-]c1c(Br)cc(Br)cc1Br [Tributyl(2,4-dichlorobenzyl) phosphonium salt with 2,4,6-tribromo-N--aci-nitroaniline]
% Increase in Plant Canopy over untreated controls ([1]; rate 0.25 kg/ha): >10 <15
% Increase in axillary branching over untreated controls ([1]; rate 0.25 kg/ha): >10 <15
% Increase in axillary branching over untreated controls ([1]; rate 0.5 kg/ha): >20 <35
